These are yes or no findings as the source states them, for the method shown. Binding seen in cells or lysates may run through a third protein. Here binding means that the protein was enriched with, or labelled near, the bait; the list need not be complete. A no says only that the protein was not detected with the bait. Tags and fused reporters may be left off the sequences shown.
Tests used:
Assay in all cases: affinity purification with mass spectrometry; total proteins of inflorescence tissues of epitope-tagged transgenic plants in IP buffer (50 mM Tris-HCl pH 7.6, 150 mM NaCl, 5 mM MgCl2, 10% glycerol, 0.1% NP-40, 0.5 mM DTT), precipitated with anti-Flag or anti-Myc antibodies 2 h at 4 °C, five washes, MS
[1] = target: T1, ASI1-IMMUNO… PROTEIN 3 (AIPP3), epitope-tagged in transgenic Arabidopsis (Arabidopsis) (UniProt Q8RXT5)
T1 sequence: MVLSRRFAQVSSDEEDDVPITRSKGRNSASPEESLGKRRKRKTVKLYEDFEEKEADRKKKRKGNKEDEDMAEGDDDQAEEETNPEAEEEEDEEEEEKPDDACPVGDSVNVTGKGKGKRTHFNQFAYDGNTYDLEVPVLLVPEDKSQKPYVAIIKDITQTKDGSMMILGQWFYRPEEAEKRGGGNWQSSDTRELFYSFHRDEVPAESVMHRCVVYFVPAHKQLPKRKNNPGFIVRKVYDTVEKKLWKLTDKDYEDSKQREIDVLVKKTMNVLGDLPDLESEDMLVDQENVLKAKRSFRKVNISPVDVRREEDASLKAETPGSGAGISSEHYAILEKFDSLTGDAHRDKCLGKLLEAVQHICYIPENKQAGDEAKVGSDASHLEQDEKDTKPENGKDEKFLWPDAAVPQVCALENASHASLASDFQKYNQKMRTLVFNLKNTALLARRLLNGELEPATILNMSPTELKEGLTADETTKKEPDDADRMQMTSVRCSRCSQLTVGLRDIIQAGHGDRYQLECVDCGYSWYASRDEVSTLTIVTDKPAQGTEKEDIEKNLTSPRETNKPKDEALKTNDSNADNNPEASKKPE

[2] = target: T2, CPL2, epitope-tagged in transgenic Arabidopsis (Arabidopsis) (UniProt Q5YDB5)
T2 sequence: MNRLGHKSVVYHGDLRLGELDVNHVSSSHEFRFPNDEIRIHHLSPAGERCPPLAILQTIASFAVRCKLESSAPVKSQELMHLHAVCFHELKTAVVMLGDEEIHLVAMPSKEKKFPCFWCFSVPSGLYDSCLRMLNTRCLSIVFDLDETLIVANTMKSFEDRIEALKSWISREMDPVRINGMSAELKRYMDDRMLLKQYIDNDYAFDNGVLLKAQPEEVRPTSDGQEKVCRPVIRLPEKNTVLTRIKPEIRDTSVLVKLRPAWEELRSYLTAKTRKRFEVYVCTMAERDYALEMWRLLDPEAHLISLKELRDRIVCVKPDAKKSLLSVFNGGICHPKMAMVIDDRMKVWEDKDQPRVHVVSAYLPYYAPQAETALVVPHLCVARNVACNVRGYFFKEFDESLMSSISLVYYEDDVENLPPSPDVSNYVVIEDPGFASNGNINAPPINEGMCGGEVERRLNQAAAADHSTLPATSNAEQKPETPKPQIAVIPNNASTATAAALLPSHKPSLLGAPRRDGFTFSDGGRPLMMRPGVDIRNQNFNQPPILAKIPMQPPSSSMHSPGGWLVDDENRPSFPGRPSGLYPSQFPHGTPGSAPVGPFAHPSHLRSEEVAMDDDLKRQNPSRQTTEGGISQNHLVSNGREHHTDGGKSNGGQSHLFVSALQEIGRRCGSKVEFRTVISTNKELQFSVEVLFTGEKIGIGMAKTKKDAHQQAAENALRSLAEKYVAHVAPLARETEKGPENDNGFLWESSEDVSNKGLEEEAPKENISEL

[3] = target: T3, AIPP2, epitope-tagged in transgenic Arabidopsis (Arabidopsis) (UniProt F4IYH6)
T3 sequence: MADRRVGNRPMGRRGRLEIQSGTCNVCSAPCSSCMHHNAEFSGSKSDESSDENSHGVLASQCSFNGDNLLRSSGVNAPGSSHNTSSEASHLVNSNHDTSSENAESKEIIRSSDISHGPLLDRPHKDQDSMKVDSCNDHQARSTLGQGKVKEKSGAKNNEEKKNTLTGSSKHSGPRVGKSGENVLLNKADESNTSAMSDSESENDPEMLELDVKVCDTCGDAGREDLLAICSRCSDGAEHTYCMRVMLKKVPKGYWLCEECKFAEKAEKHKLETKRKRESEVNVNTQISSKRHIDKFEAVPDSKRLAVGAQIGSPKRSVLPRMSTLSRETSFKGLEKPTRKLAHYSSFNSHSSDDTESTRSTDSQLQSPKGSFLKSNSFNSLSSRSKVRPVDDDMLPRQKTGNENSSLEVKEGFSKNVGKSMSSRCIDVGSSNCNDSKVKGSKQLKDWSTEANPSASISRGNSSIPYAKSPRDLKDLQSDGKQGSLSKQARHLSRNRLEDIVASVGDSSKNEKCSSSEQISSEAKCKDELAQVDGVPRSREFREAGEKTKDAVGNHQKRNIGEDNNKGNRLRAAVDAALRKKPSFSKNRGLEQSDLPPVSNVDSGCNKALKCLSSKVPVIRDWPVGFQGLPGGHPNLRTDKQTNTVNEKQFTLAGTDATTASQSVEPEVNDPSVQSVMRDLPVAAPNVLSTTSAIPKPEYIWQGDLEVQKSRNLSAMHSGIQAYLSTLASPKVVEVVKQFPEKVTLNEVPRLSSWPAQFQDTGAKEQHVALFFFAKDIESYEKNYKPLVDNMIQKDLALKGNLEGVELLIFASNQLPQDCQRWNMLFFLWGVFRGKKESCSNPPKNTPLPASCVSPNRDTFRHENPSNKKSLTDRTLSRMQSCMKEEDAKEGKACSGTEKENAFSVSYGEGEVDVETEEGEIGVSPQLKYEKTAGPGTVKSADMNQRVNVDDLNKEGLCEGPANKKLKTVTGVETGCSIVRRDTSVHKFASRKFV

binding [1] | binding [2] | binding [3] | Binder
binds | binds | – | AIPP2, epitope-tagged in transgenic Arabidopsis (protein, UniProt F4IYH6 1-994) MADRRVGNRPMGRRGRLEIQSGTCNVCSAPCSSCMHHNAEFSGSKSDESSDENSHGVLASQCSFNGDNLLRSSGVNAPGSSHNTSSEASHLVNSNHDTSSENAESKEIIRSSDISHGPLLDRPHKDQDSMKVDSCNDHQARSTLGQGKVKEKSGAKNNEEKKNTLTGSSKHSGPRVGKSGENVLLNKADESNTSAMSDSESENDPEMLELDVKVCDTCGDAGREDLLAICSRCSDGAEHTYCMRVMLKKVPKGYWLCEECKFAEKAEKHKLETKRKRESEVNVNTQISSKRHIDKFEAVPDSKRLAVGAQIGSPKRSVLPRMSTLSRETSFKGLEKPTRKLAHYSSFNSHSSDDTESTRSTDSQLQSPKGSFLKSNSFNSLSSRSKVRPVDDDMLPRQKTGNENSSLEVKEGFSKNVGKSMSSRCIDVGSSNCNDSKVKGSKQLKDWSTEANPSASISRGNSSIPYAKSPRDLKDLQSDGKQGSLSKQARHLSRNRLEDIVASVGDSSKNEKCSSSEQISSEAKCKDELAQVDGVPRSREFREAGEKTKDAVGNHQKRNIGEDNNKGNRLRAAVDAALRKKPSFSKNRGLEQSDLPPVSNVDSGCNKALKCLSSKVPVIRDWPVGFQGLPGGHPNLRTDKQTNTVNEKQFTLAGTDATTASQSVEPEVNDPSVQSVMRDLPVAAPNVLSTTSAIPKPEYIWQGDLEVQKSRNLSAMHSGIQAYLSTLASPKVVEVVKQFPEKVTLNEVPRLSSWPAQFQDTGAKEQHVALFFFAKDIESYEKNYKPLVDNMIQKDLALKGNLEGVELLIFASNQLPQDCQRWNMLFFLWGVFRGKKESCSNPPKNTPLPASCVSPNRDTFRHENPSNKKSLTDRTLSRMQSCMKEEDAKEGKACSGTEKENAFSVSYGEGEVDVETEEGEIGVSPQLKYEKTAGPGTVKSADMNQRVNVDDLNKEGLCEGPANKKLKTVTGVETGCSIVRRDTSVHKFASRKFV
binds | binds | – | PARALOG OF AIPP2 (PAIPP2), epitope-tagged in transgenic Arabidopsis (protein, UniProt F4KE59 1-1311) MADRRVGKRQMGQRGFSKVESGTCNVCSAPCSSCMHRNVGFTGSKLDESSDENCHGVVGSQCSVNEDDLLPSSMVNAHKSLNNTASEASNLVNSSHDALSENAESKETIRCSGISDDSGAAAMTSKPSLSGSRMKHKVSASANMLDQSSNCIEDQEDGILSADRAKQLKSGCSNNEIGNKDLADGSALNSDPIPGGSRKDEVKLESLQNPSSNHDDRVSSEKGNFKEKSRPGGNKERQEPSVEGSTRSGENRKDGKSSKSSSSNSSAVSESESDDSEMVEHDVKVCDICGDAGREDLLAICSGCSDGAEHTYCMREMLDEVPEGDWLCEECAEEAEKQKQEAKRKRETEVTFNTYSSGKRHADKIEAAPDAKRQVVEASTGSPKKSILPRVGALSRETSFKGLDRLRGKLNHQTSFSDDTESARSAGSQLQPPKGAFLKSSSFNCSSSKPKVQLMDDAIHPRQKTGKEDTALDLKVGGFRNVGKSMPSRTTDAGNSGGSDSQAKMLGSKVYHSQEGKSLKQVKDRNREANASASSIDQKLKSRGNSSVSHANNNRDLKGLQSDGKRGNLTKQVSNLSRNRLENSVVSGGDISTNEKCSASEQSSSQADCKDELPSTSCTGEGMPNHGTVALQDGLPRSRVPREVGKKSKEAFSKRQRSSLLAGAKGLPSSQKGGQTAESSDTSGVSDSDLSTTKNVKEDLNKGNRLRAAVDAALRKKPSFGKNRVLEQSDASLVANVDSSSEKTLRNQLPSKMHKNHVSHEGLQGGHPILWPTSDPYKQTIVTNEKQLIFPGADTIPSRLVEPEVSFPAVKPVMRDLPLVPSPVMLRSSAIPDHEFIWQGDLEVRKIINQSAMHSGIQAHLSTLASPRVAEVVNKFPETFSLNEVPRKSTWPTQFEKLGTKEAHIALFFFAKDTESYERNYKPLVDNMIKNDLALKGNLDNVDLLIFASNQLPSNCQRWNMLYFLWGVFQGRKETNPQKNTSLPTSNVLPRDRDPKELCQTSSPSKHLEKGSSLRESSSNGIETRNGTDARSHENPNNRESSIERSPSKKEDIALKVEEAGVNHIPPQVTGSNSGDSLVRKVQKVEEQELGGRKDLPLTVMGSGIQSHGQDNPLEKDLNSSQASHRKRPLWELSNPANENSSAINQKVELNNDGLCEGSPNKKLKTENGSSSLCRDTSGHDSGIMKKSPKVVFPLDLNDDSEMVDNLSPLGNDENNNNRRLISGTVPNLELALGAEETTEATMGLLPFLSRSSNSGEQSNNSMNKEKQKADEEEEDDAEVAASLSLSLSFPGTEERKNVNTPLFLFRDLPR
no binding | no binding | no binding | anti-silencing 1 (ASI1) (protein, UniProt Q9LYE3 1-650) MEESVASEGLEFKWGKKKGVGGKKKDVQFYESFTYDGDEYRLYDCVLVGNASEPDSTEPFIGMIIKIWEHANKHIPKKVKLLWFFKPSEIAPYLEGVPNVLANEVFLASGEGLGLANTNQLEAIGGKCSVLCISKDKRNPQPSDEKFNSADFVFCRAFDVGSCKVVDTIDDKIAGVDVKFIFNRACSEKEATAVQNIEADVNGKSDSLKPNGPLARGASGSVRKIEDSAFESSDCKENSNGCKEEKEKGHYQLAIKKSTLAEERSNKDSGSRGNHYNGKDQESEVKKQLTKQKSMPGEERYSNSFEASGSRTIHSISKKAQENDVKKQLTKQKSMPAGERYSQESSGLDDRPLKKQKLDGSVTVRDGWDTTILQNITSDGKKDTGSFKRPRDKVTIEEVPPEKRSFVKNRDLVVSVSEGKTTKTVTEKGISKKPSFGRAEDKMSADDNERNYQVTEVCRRPDAGKSKWFRSLPWEESMREAEKKGTVVLLQNLDPTYTSDEVEDIVYSALNQQCEARMIERTSVTIPHIGEALVIFKTREVAERVIRRLDEGCLLLSSGRPLVASFAKITPPGKPSLFSGHIKLHKTQTRREMRDAVATSHSSQPNNLEFDMAMEWCLHQARHEQASESVSKRQLEEMKSLRINFKLKLP
